Results deposited as PubChem BioAssay AID1224828 (NIAID, 2016)
Screen: 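Knock-downs that increase or decrease LPS-induced p65 nuclear translocation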 (primary screen). Cell system: mouse RAW264.7 G9 macrophage reporter cells (GFP-p65, Tnf promoter-mCherry). Knock-down reagent: siRNA pool against mouse genes, 100 nM. Time to read-out: 2 days siRNA transfection, then 40 min LPS before fixation. Treatment: LPS (Salmonella minnesota R595) at 10 ng/ml. Detection: 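Microscopy ratio of nuclear to perinuclear-ring GFP-p65 signal, scaled to the plate median; gene score is the average of two replicate robust z-scores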. Reading the numbers: p65 translocation robust z-score: higher = more nuclear NF-kappaB p65 after LPS than the plate median; nuclear/cytoplasmic p65 ratio: higher = more nuclear NF-kappaB p65. Rule for the call: 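Active if robust z is above 3.3 (negative regulators) or below -1.56, the Tlr4 control median (positive regulators); activity score 50 or more; control wells not called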. Meaning of the calls: active = hit (p65 shift raised or lowered); inactive = no clear change.
In all, the deposit lists about 17,000 reagents; shown is an unselected part. 762 of them (4.5%) count as active. 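Active calls include both raised and lowered p65 entry, mostly lowered; wells with fewer than 50 cells lack a z-score.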 The raw values are shown without normalisation.

Depletion of Grhpr (GeneID 76238) came out at: p65 translocation robust z-score -0.2; nuclear/cytoplasmic p65 ratio, rep 1 = 1.43; nuclear/cytoplasmic p65 ratio, rep 2 = 1.33; low cell count flag enough cells to score; inactive.
Against St8sia2 (GeneID 20450), the entry reads p65 translocation robust z-score 1.36; nuclear/cytoplasmic p65 ratio, rep 1 = 1.63; nuclear/cytoplasmic p65 ratio, rep 2 = 1.37; low cell count flag enough cells to score; inactive.
With knock-down of Matk (GeneID 17179), the screen gave p65 translocation robust z-score -0.5; nuclear/cytoplasmic p65 ratio, rep 1 = 1.49; nuclear/cytoplasmic p65 ratio, rep 2 = 1.4; low cell count flag enough cells to score; inactive.
With knock-down of Gpr82 (GeneID 319200), the record shows p65 translocation robust z-score 0.93; nuclear/cytoplasmic p65 ratio, rep 1 = 1.64; nuclear/cytoplasmic p65 ratio, rep 2 = 1.71; low cell count flag enough cells to score; inactive.
Against Ntm (GeneID 235106) the deposit lists p65 translocation robust z-score 1.23; nuclear/cytoplasmic p65 ratio, rep 1 = 1.58; nuclear/cytoplasmic p65 ratio, rep 2 = 1.55; low cell count flag enough cells to score; inactive.
Knock-down of Nmnat3 (GeneID 74080) gave: nuclear/cytoplasmic p65 ratio, rep 1 = 1.35; nuclear/cytoplasmic p65 ratio, rep 2 = 1.27; low cell count flag fewer than 50 cells per well; well left out of scoring; inactive.
Against Dcps (GeneID 69305) the deposit lists p65 translocation robust z-score 0.74; nuclear/cytoplasmic p65 ratio, rep 1 = 1.61; nuclear/cytoplasmic p65 ratio, rep 2 = 1.4; low cell count flag enough cells to score; inactive.
After knock-down of Nupr1 (GeneID 56312) the results were p65 translocation robust z-score 0.54; nuclear/cytoplasmic p65 ratio, rep 1 = 1.88; nuclear/cytoplasmic p65 ratio, rep 2 = 1.53; low cell count flag enough cells to score; inactive.
Ubash3a (GeneID 328795) showed p65 translocation robust z-score -0.09; nuclear/cytoplasmic p65 ratio, rep 1 = 1.55; nuclear/cytoplasmic p65 ratio, rep 2 = 1.44; low cell count flag enough cells to score; inactive.
For Tmem150a (GeneID 232086), the entry reads p65 translocation robust z-score 0.11; nuclear/cytoplasmic p65 ratio, rep 1 = 1.58; nuclear/cytoplasmic p65 ratio, rep 2 = 1.88; low cell count flag enough cells to score; inactive.
With knock-down of Ide (GeneID 15925) the results were p65 translocation robust z-score -0.52; nuclear/cytoplasmic p65 ratio, rep 1 = 1.25; nuclear/cytoplasmic p65 ratio, rep 2 = 1.42; low cell count flag enough cells to score; inactive.
Knock-down of Tmem234 (GeneID 76799) came out at: p65 translocation robust z-score -0.08; nuclear/cytoplasmic p65 ratio, rep 1 = 1.37; nuclear/cytoplasmic p65 ratio, rep 2 = 1.48; low cell count flag enough cells to score; inactive.
With knock-down of Dcxr (GeneID 67880), the screen gave p65 translocation robust z-score -0.58; nuclear/cytoplasmic p65 ratio, rep 1 = 1.38; nuclear/cytoplasmic p65 ratio, rep 2 = 1.32; low cell count flag enough cells to score; inactive.
Silencing of Or12j5 (GeneID 258513) gave: p65 translocation robust z-score -0.34; nuclear/cytoplasmic p65 ratio, rep 1 = 1.4; nuclear/cytoplasmic p65 ratio, rep 2 = 1.23; low cell count flag enough cells to score; inactive.
After knock-down of Cldn3 (GeneID 12739), the screen gave p65 translocation robust z-score -0.83; nuclear/cytoplasmic p65 ratio, rep 1 = 1.31; nuclear/cytoplasmic p65 ratio, rep 2 = 1.31; low cell count flag enough cells to score; inactive.
After knock-down of Scpep1 (GeneID 74617) the results were nuclear/cytoplasmic p65 ratio, rep 1 = 1.65; nuclear/cytoplasmic p65 ratio, rep 2 = 1.35; low cell count flag fewer than 50 cells per well; well left out of scoring; inactive.
Foxl1 (GeneID 14241) scored p65 translocation robust z-score 0.23; nuclear/cytoplasmic p65 ratio, rep 1 = 1.47; nuclear/cytoplasmic p65 ratio, rep 2 = 1.39; low cell count flag enough cells to score; inactive.
Depletion of Letmd1 (GeneID 68614) gave: p65 translocation robust z-score 0.3; nuclear/cytoplasmic p65 ratio, rep 1 = 1.58; nuclear/cytoplasmic p65 ratio, rep 2 = 1.74; low cell count flag enough cells to score; inactive.
With knock-down of Swt1 (GeneID 66875), the record shows p65 translocation robust z-score -2.52; nuclear/cytoplasmic p65 ratio, rep 1 = 1.06; nuclear/cytoplasmic p65 ratio, rep 2 = 1.05; low cell count flag enough cells to score; active.
Against Miga1 (GeneID 215708), the values are p65 translocation robust z-score 0.47; nuclear/cytoplasmic p65 ratio, rep 1 = 1.52; nuclear/cytoplasmic p65 ratio, rep 2 = 1.56; low cell count flag enough cells to score; inactive.
After knock-down of Rara (GeneID 19401), the record shows p65 translocation robust z-score -1.49; nuclear/cytoplasmic p65 ratio, rep 1 = 1.33; nuclear/cytoplasmic p65 ratio, rep 2 = 1.29; low cell count flag enough cells to score; inactive.

Laid out differently: entries from further up
{"target gene":"Matk (GeneID 17179)","p65 translocation robust z-score":-0.5,"nuclear/cytoplasmic p65 ratio, rep 1":1.49,"nuclear/cytoplasmic p65 ratio, rep 2":1.4,"low cell count flag":"enough cells to score","activity call":"inactive"}
{"target gene":"Gpr82 (GeneID 319200)","p65 translocation robust z-score":0.93,"nuclear/cytoplasmic p65 ratio, rep 1":1.64,"nuclear/cytoplasmic p65 ratio, rep 2":1.71,"low cell count flag":"enough cells to score","activity call":"inactive"}
